Laboratory results from US8552066B2, “Modified chalcone compounds as antimitotic agents” (Arizona Biomedical Research Commission, priority 2006, dated 2013).

Experiment: Reaction of CMAC-1 with thiol nucleophile (NMR study)
Conditions: one equivalent N-acetylcysteamine
Description: To probe the reactivity of the α,β-unsaturated thiol ester CMAC-1 with a thiol nucleophile like that of tubulin, an NMR study was carried out. CMAC-1 (7.2 mg/0.7 mL CDCl3) was treated with one equivalent of N-acetylcysteamine (the thiol nucleophile) as a tubulin model compound. […] To deprotonate the neutral thiol and convert it into the thiolate, 0.1 equivalent of a base (DBN, 1,5-diazabicyclo[4.3.0]non-5-ene) was added. Within 10 minutes of addition of DBN, 89% of CMAC-1 had been converted to the product of nucleophilic addition, shown below in Scheme 3, as evidenced by loss of the thiol ester vinyl proton resonances (S—C(═O)—CH═CH—CH3) and an upfield shift of the terminal CH3 signal from δ 1.8 to 1.3 ppm. Two minor products were also observed.

For `C/C=C/C(=O)SCC(=O)Oc1cc(/C=C/C(=O)c2cc(OC)c(OC)c(OC)c2)ccc1OC` [CMAC-1, 3-[3-(crotonylsulfanylmethylcarbonyloxy)-4-methoxyphenyl]-1-(3,4,5-trimethoxyphenyl)propenone], which “CMAC-1 converted to the product of nucleophilic addition” value (0.1 equivalent DBN, CDCl3, within 10 minutes of addition of DBN) is on record?
Its value is 89%.

What about the “change in NMR spectrum on treatment with thiol nucleophile” value (CDCl3, no base) of the same compound?
The value was “no observable change in the NMR spectrum”.
